This passage reports binding results from PMC10699890.

Results are given in words; binding and its absence hold for the method and conditions named. For some assays here: In cells and extracts the contact can be indirect. Some entries that bind do so weakly or less than the wild type. Where a sequence is shown, tags or fusion partners need not be part of it.

Experiment [1] deals with T1, AGL15 (bait of the yeast 2‐hybrid screen) (Arabidopsis thaliana) (UniProt Q38847).
T1 sequence: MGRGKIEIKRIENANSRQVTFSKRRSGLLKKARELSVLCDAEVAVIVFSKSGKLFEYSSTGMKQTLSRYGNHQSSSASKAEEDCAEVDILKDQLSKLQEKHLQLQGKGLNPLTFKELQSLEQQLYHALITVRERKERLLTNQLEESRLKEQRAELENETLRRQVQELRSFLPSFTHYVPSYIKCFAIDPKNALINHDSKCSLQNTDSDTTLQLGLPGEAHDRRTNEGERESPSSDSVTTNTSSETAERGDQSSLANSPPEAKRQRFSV
Briefly: two-hybrid; yeast 2-hybrid screen for proteins that interact with AGL15; details in Hill et al. (2008).

The target of experiment [2] is T2, AGAMOUS LIKE15 (AGL15) in embryonic culture tissue (Arabidopsis thaliana) (UniProt Q38847).
T2 sequence: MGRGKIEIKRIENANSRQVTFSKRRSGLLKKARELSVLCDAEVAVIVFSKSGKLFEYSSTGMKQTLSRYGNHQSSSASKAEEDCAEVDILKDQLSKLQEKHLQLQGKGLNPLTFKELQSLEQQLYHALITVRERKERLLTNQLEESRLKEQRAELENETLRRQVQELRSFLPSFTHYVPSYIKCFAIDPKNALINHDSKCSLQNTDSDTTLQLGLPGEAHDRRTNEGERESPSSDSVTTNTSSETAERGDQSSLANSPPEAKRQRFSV
Put plainly: co-IP; nuclear extract of 35S:LBD40-10x-c-Myc::35S:AGL15 ECT, sonicated, treated with benzonase; immunoprecipitated with anti-AGL15 serum (pre-immune as control); blot with anti-c-myc and anti-AGL15.

B1: AD (activation domain)‐LBD40 (protein, UniProt Q9ZW96 1-233)
chain: MRMSCNGCRVLRKGCSENCSIRPCLQWIKSAESQANATVFLAKFYGRAGLMNLLNTGPDHLRPAIFRSLLYEACGRIVNPIYGSVGLLWSGNWHLCQAAVEAVMRGSPVTPIACDAAVTGQAPPFNNKLCDIRHVSSRDENVKRRSRGACKEERNVRSLSHESSLSHESPVSSEETTTEEPKTWIGLELTLGLEPLARGNHVVVPMKKRKLERCGTSEDEDTCKIELGLVCSE
Take B1: the binding result in experiment [1] is recorded as “binds”.

B2: LBD40‐10x‐c‐Myc (protein, UniProt Q9ZW96 1-233)
chain: MRMSCNGCRVLRKGCSENCSIRPCLQWIKSAESQANATVFLAKFYGRAGLMNLLNTGPDHLRPAIFRSLLYEACGRIVNPIYGSVGLLWSGNWHLCQAAVEAVMRGSPVTPIACDAAVTGQAPPFNNKLCDIRHVSSRDENVKRRSRGACKEERNVRSLSHESSLSHESPVSSEETTTEEPKTWIGLELTLGLEPLARGNHVVVPMKKRKLERCGTSEDEDTCKIELGLVCSE
As to B2, in experiment [2], the binding entry is recorded as “binds”.
